No constants are given. Whether binding was seen depends on the method and setting. Binding can be weak; no strength is given. Sequences can lack the tags named with a protein.
B1: recombinant Kap120-6xHis (natural protein, S. cerevisiae, UniProt Q02932 1-1032, looked up)
chain: MASSLNELNLVQVLEQASNPQHIRSDVQKLAEQQLRQWETQAGFHYLLQSIYLNLSNSLQIRWLAVIQFKNGVDKYWRSTRINAIPKDEKASIRGRLFEMIDEQNNQLCIQNAQASARIARLDFPVEWPTLFEDLENLLNDEIIRKDSVKIYNILMHINQIVKVLGTARIGRCRPAMQSKVPLILPLIVRIYLQSFEEWTTSSNLNYEDLSSLQVSYLALKVLRRIICEGYDRPQTDQSVCDFIKLSVSHFEMLISNHENFKKFDIYEKFIKCLGKLYFNLVTGSPANFILLPCSTQILITYTRLIFDKAPKVYRENSDVTGDFWEQTAIRGLLILKRVINFIHKKGAITLKARSDKLTIDASINKINTEFLNENLITRLVDTLMEWYLRLRPTELENWFMDPEEWINEQMATSYEYQIRPCAENVFQDLMNTFSELLVPYLLKKIENDASKLSNSLDDFLRKDAIYASFQLSASAVSEMVDFDRLLIQVFLPEATNTNISGDELRIIRRRVALIINEWSTVKCSEESKSLCYKLFTNFLTDEDDKVVLLTTVQTVRTMVDDWNFNKDTFQPFLTENVHLLLRKILPSVSLTETRLYVLNTLSDIIIQTKPLISRDLLVEILQIIPNLWEIATNNASEAILANALLRLLRNLVSSLGSQSHLTWDIAIPVVALACDPSSMQYQLLSEDGYELWGMLLQNFSSHDQEFDDKFVELVPFLKYGIETHTEILPTLLEIIKSYALILNPVDFFSNNTFQDIFKQMSKYLLKLREDSFQLVLEIWEILILSNESDYENLLLQKFYETGVLSALFDAIFLEEAPSSYLCSQIIQIIARISYVNPDALMTFLATYHDNLPTSNENARMPESIRKIVSKDQTYDSVVNKLLTGWIVCFRDIFDPKFKKVHILGISSLLRTGLVPILTEFSSIASLWIEMLEEINETNRGDCEKYHLNDIVTEQSIAFHPLTAEQLRYHQLCKNNDPVHNISLKDFISQSMEYLESHLGVERYQEFLKTINPSLLENLQMFLSIQPQEARP

The chains behind the UniProt entries cited, without tags or fusion partners. Where a name states a change or a piece, a line headed by the entry shows the natural chain unless it says otherwise.
UniProt P22147: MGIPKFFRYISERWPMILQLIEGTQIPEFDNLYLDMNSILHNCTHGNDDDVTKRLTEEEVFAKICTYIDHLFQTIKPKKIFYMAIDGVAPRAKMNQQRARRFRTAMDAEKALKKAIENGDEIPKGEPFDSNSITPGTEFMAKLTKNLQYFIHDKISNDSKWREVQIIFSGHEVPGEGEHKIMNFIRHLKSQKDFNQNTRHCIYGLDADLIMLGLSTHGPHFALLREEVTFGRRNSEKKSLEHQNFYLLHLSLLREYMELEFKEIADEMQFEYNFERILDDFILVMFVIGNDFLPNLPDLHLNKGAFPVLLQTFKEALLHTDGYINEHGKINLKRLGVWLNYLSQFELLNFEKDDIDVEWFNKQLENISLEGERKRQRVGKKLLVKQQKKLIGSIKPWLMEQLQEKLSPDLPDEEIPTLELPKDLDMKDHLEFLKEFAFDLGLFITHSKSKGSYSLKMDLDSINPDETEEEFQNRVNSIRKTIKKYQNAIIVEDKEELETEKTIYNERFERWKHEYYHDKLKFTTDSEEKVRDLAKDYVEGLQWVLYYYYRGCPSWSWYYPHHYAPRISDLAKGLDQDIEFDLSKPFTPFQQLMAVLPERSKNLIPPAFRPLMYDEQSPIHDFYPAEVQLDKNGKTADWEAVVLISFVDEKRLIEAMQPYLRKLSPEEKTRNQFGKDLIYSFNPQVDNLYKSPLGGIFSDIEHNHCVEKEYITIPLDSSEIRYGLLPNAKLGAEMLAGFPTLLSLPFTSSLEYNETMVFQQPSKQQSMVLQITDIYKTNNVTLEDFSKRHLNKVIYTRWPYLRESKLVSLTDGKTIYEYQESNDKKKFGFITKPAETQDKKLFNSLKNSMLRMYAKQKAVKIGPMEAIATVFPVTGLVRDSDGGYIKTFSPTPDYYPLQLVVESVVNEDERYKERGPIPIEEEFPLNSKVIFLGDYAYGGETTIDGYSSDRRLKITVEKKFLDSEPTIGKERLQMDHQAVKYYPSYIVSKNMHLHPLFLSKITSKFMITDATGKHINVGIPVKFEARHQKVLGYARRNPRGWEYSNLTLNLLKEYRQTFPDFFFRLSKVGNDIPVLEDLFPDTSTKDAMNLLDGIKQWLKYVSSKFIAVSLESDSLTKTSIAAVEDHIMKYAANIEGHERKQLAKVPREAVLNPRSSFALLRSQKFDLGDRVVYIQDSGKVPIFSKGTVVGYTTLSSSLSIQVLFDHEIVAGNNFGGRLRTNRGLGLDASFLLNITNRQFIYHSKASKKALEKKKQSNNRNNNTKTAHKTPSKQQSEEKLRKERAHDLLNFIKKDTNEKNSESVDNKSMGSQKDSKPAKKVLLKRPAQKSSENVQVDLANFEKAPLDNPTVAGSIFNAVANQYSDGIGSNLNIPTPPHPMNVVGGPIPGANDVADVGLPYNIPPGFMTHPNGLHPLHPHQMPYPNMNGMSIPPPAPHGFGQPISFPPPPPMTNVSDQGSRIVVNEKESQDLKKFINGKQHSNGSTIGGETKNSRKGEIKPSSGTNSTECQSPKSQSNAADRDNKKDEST

Key:
Experiment in all cases: pull-down
recombinant Kap120-6xHis = biological target: B1
[1] = biological target: FLAG-tagged Xrn1^ΔNLS1 (S. cerevisiae) (UniProt P22147)
[2] = biological target: FLAG-tagged Xrn1^ΔNLS2 (S. cerevisiae) (UniProt P22147)

| Molecule | binding (recombinant Kap120-6xHis) | binding [1] | binding [2] |
| --- | --- | --- | --- |
| FLAG-tagged Xrn1^ΔNLS1 (from UniProt P22147) (enzyme) | binds |  |  |
| FLAG-tagged Xrn1^ΔNLS2 (from UniProt P22147) (enzyme) | binds |  |  |
| B1 |  | binds | binds |

Source: article doi:10.1101/2021.04.01.437949 (bioRxiv, 2021)
